Laboratory results reported in article PMC9830831.
No constants are given. Whether binding was seen depends on the method and setting. In cells and extracts the contact can be indirect. Some binding calls cover weakened binding; strength is not graded here.

Target: T1, ZFP36L2 (human (endogenous in A549, PC9, A549-DDP, PC9-DDP)) (UniProt P47974)
T1 sequence: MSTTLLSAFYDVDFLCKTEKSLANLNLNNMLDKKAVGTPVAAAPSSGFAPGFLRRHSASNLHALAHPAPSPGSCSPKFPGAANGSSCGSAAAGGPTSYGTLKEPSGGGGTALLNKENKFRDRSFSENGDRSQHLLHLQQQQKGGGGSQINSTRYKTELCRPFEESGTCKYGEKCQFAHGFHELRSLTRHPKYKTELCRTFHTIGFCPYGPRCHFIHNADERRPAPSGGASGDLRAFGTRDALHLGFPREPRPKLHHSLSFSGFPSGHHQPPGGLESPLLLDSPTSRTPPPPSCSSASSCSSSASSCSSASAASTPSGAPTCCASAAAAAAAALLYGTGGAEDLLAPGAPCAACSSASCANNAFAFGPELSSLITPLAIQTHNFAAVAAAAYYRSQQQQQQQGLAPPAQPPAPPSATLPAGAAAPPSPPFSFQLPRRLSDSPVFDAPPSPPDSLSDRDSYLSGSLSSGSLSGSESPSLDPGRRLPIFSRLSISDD
Assay: co-IP; endogenous; Co-IP kit (Thermo #26149); 5 mg of cell protein with 10 ug of ZFP36L2 antibody or IgG control overnight at 4 °C, eluate blotted for PROCA1; A549, PC9, A549-DDP and PC9-DDP cells; also A549 with shLINC00173 and A549-DDP with LINC00173 overexpressed, cultured with cisplatin

binding: binds
B1: PROCA1 (protein, UniProt Q8NCQ7 1-364)
chain: MWVRTTLTIERWTKEKTEPKARSWDEALSDVNRLPSWERGHLLAGVASSTDVSTFSEGGDCKEPDKCCWRHKQCTGHIIYPFASDCVRHSLHLHSVNHCNCNSRLKDSSEDSSSSRGAGPTCSHVIESPCFELTPEEEHVERFRYGWCKSYRPVSVAVIHHPLYHECGADDLNEEEEEEEEESKPPIPTQVGPATASPDLGTSMATGTPDSTAPITIWRSESPTGKGQGSKVIKKVKKKKEKEKDKEEMDEKAKLKKKAKKGQLTKKKSPVKLEPSPPDVSRSLSARQLARMSESSPESREELESEDSYNGRGQGELSSEDIVESSSPRKRENTVQAKKTGAKPSQARKVNKRKSPPGSNPNLS
